Reference: patent publication US20210371492A1 (INNOVATIVE CELLULAR THERAPEUTICS, published 2021)
Numbering of substitutions follows the chain as printed. Results are given in words; binding and its absence hold for the method and conditions named. For part of these data: Binding calls can cover weak binding; strength is not graded here.

B1: R7C8VH/L1B9VK-mIgG2a (antibody, V domains shown)
VH: QVQLQQWGAGLLKPSETLSLTCAVFGGSFSGYYWSWIRQPPGKGLEWIGEINHRGNINDNPSLKSRVTISVDTSKNQFALKLSSVTAADTAVYYCARERGYTYGNYEHWGQGTLVTVSS
VL: EIVMTQSPATLSVSPGERATLSCRASQTVNRNLAWYQQKPGQAPRLLIYGASTRATGIPARFSGSGSGTEFTLTIGSLQSEDFAVYYCQQYKTWPRSFGQGTNVEIK
B2: R7C8VH/L1C9VK-mIgG2a (antibody, V domains shown)
VH: B1 VH
VL: B1 VL with T93N
B3: R8C11VH/L4G6VK-mIgG2a (antibody, V domains shown)
VH: B1 VH with T102S, Y103F, E107D
VL: B1 VL with N30T, T93S
notes: Whole antibody with human variable regions and mouse constant regions (pMABG2a, pMABK); also called R8C11+L4G6
B4: R8C11VH/L3B4VK-mIgG2a (antibody, V domains shown)
VH: B1 VH with T102S, Y103F, E107D
VL: B1 VL with N30T, T93S, S97T
notes: Whole antibody with human variable regions and mouse constant regions (pMABG2a, pMABK); also called R8C11+L3B4

Experiments:
[1] = biological target: CTLA4-his; assay: ELISA, binding specificity, antibody 10ug/ml, OD490; the text calls this non-specific binding
[2] = biological target: IL4R-his; assay: as above
[3] = biological target: ST2-his; assay: as above
[4] = biological target: CTLA4-his; assay: ELISA, binding specificity, single antibody concentration, OD490
[5] = biological target: IL4R-his; assay: as above
[6] = biological target: ST2-his; assay: as above

Row | Binder | binding [1] | binding [2] | binding [3] | binding [4] | binding [5] | binding [6]
1 | B1 | binds | binds | binds |  |  | 
2 | B2 | binds | binds | binds |  |  | 
3 | B3 |  |  |  | no binding (tested: 10 ug/ml) | no binding (tested: 10 ug/ml) | no binding (tested: 10 ug/ml)
4 | B4 |  |  |  | no binding (tested: 10 ug/ml) | no binding (tested: 10 ug/ml) | no binding (tested: 10 ug/ml)
